## Screening data, single-dose tests

The filed quantity is “Percent Effect” (%).
The controls that fix the scale are not given in the record; negative values are as filed.
Compounds were drawn at random from those tested, without regard to their results.

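Phenotypic screen: M. tuberculosis growth, cholesterol and DPPC medium, 4 days; the read-out is not stated. Compounds at 500 µM. The record gives no direction; compounds that gave an IC50 in retests scored well above the rest, so higher reads as more growth inhibition. Of about 18,000 compounds tested this way, about 900 (5%) reached 50% or more in at least one test.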

SMILES: Cc1n[nH]cc1CNCCN1CCCCCC1=O
Percent Effect: 2.57

SMILES: c1cc2c(cc1NC1CCCOC1)COC2 (stereo not drawn)
Percent Effect: 28.49

SMILES: CS(=O)(=O)N1CCN(c2cccc(O)c2)CC1
Percent Effect: 4.659

SMILES: CN(C)c1nc(N)nc(COC(=O)c2ccsc2)n1
Percent Effect: -12.17

SMILES: CSc1ccc(OCCn2cc(Cl)c(=O)[nH]c2=O)cc1
Percent Effect: 4.734

SMILES: CNC(=O)C1CCCN1Cc1cccc(C(=O)OC)c1 (stereo not drawn)
Percent Effect: 13.9

SMILES: CCOC1CC(CCNC(=O)N2CCC(CO)CC2)C1 (stereo not drawn)
Percent Effect: -1.434

SMILES: CC(O)CN1CCN(C(=O)CN(C)C2CC2)CC1 (stereo not drawn)
Percent Effect: -6.034

SMILES: CC(CC(C)(C)O)NCCSc1cnn[nH]1 (stereo not drawn)
Percent Effect: 5.825

SMILES: CC(C)NC(=O)CCc1ccc(S(=O)(=O)N(C)C)cc1
Percent Effect: 10.93

SMILES: O=C1CCCN1CCCNS(=O)(=O)c1ccc(Br)s1
Percent Effect: 43.88

SMILES: CCc1ccc(CNC(C)(CO)CO)cc1
Percent Effect: 4.461

SMILES: CC(C)NC(=O)N1CCNCC1
Percent Effect: -10.69

SMILES: CCC(O)CN1CCCN(C2CCOCC2)CC1 (stereo not drawn)
Percent Effect: 0.1248

SMILES: CCN(CC)CCCNC(=O)c1ccccc1
Percent Effect: -9.281

SMILES: Cc1ccc(C(=O)NCCCNS(C)(=O)=O)s1
Percent Effect: 0.3904

SMILES: CCn1ccnc1CNC(=O)c1ccc2c(c1)CCO2
Percent Effect: 0.526

SMILES: COCc1cc(N2CCCC(CO)C2)n2nccc2n1 (stereo not drawn)
Percent Effect: 12.69

SMILES: CN(CC1CCCCN1C)C(=O)c1ccc[nH]1 (stereo not drawn)
Percent Effect: 2.17

SMILES: CC(C)n1cc(C(=O)NCCN(C)S(C)(=O)=O)cn1
Percent Effect: -4.642

SMILES: Cc1ccc2c(c1)OC(C)CN2S(C)(=O)=O (stereo not drawn)
Percent Effect: -14.02

SMILES: COCc1cc(C(C)=O)ccc1OC
Percent Effect: -21.17

SMILES: CCC(NC(=O)c1ccc(NC)nc1)C1CCOCC1 (stereo not drawn)
Percent Effect: -11

SMILES: Cn1nnnc1C1CCCN(C(=O)CC2CCCC2)C1 (stereo not drawn)
Percent Effect: 2.863

SMILES: CCc1noc(CN2CCC(C)CC2)n1
Percent Effect: 17.86

SMILES: COCCN1CCN(Cc2cccnc2C)CC1=O
Percent Effect: -2.851

SMILES: CN(C)CCCNC(=O)c1cccc2cccnc12
Percent Effect: 7.988

SMILES: O=C(c1cnn(-c2ccccc2)c1)N1CCCCC1
Percent Effect: -12.49

The values are deposited in ChEMBL (CHEMBL3988442, “University of Dundee, Small-Polar-MMV Screening Library” (2021)).